Results taken from patent EP2093288A1, “NOVEL DIPEPTIDE-DIGESTING ENZYME, METHOD OF PRODUCING THE SAME, METHOD OF ASSAYING GLYCATED PROTEIN BY USING THE DIPEPTIDE-DIGESTING ENZYME AND REAGENT COMPOSITION TO BE USED THEREIN” (Amano Enzyme Inc., priority 2006, dated 2008).
For at least one compound, name, drawing or mass did not settle the structure.

Tested on: dipeptide-degrading enzyme
Test: Influence of metal ions and the like on enzymatic activity (dipeptide-degrading activity, Example 3 method)
Type: biochemical, Sphingopyxis chilensis No. 0522
Settings: Conc. 2mM; 100 mM PIPES buffer (pH 6.2), 0.1% Triton X-100; None = 100
Experimental: The dipeptide-degrading activity may be measured by quantifying Fru-Val or histidine formed upon the degradation of Fru-Val-His. The method for quantifying histidine is described below. The amount of enzyme degrading 1 µmol of Fru-Val-His in 1 minute is defined as 1 unit of enzymatic activity (U). The reagents (1), (2), and (3), and a substrate solution used for measuring the activity were prepared as described below.
Substrate solution: Fru-Val-His (Peptide Institute Inc.) was dissolved in 100 mM of a MOPS buffer (pH 7.0), thus obtaining 40 mM of substrate solution.
0.02 mL of 1.40 mM substrate solution and 0.16 mL of the reagent (1) were accurately dispensed and mixed, and preincubated at 37°C for 5 minutes. Thereafter, 0.02 mL of enzyme solution was accurately added to and mixed with the mixture, and allowed to react at 37°C. As a blank test, 0.02 mL of the reagent (1) was added in place of the enzyme solution. […] After a lapse of 15 minutes, the absorbance at 505 nm was measured, and the dipeptide-degrading activity was calculated according to the calculation formula described below. […]
The enzymatic activity was measured in the same manner as Example 3, except that the reagent (1) was replaced with various metals and the like at specified concentrations (Table 2) and a 100 mM PIPES buffer (pH 6.2) containing 0.1% Triton X-100.

NC(N)=S [Thiourea]
Relative activity (%): 104%
